Among the data in PubChem BioAssay AID638 (SRMLSC, 2007) are growth inhibition values, retold here.

The whole screen tested about 1,300 compounds, of which about 65 (5%) were called active.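 Rule for the calls: active = growth inhibition reaching a set limit at one or more tested doses; inactive = the rest.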 The list shows a part of the results. Results with a measured potency or affinity are listed apart.

The test is described as follows: wild-type E. coli BW25113 antibacterial activity – OD615, dose response (AID 638). The conditions noted are these: at 100 µM (top of the series) unless noted. The essentials: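 Material – E. coli BW25113 wild type · Medium – Kanamycin-supplemented LB broth · Doses – compound dilution series for dose-response · Incubation – 20 h compound exposure, 37 °C · Technique – optical density (absorbance) at 615 nm · Read-out basis – IC50 from 4-parameter logistic, bounds fixed 0–100% · Control set – chloramphenicol at 30 µM final as inhibition control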
As to `Cc1ccc2c(CC(=O)OCc3nc(N)nc(Nc4ccccc4C)n3)coc2c1`, the growth inhibition was inactive: 1.56%.

For the molecule `COc1ccc(C2(O)CC3CCC(C2)N3c2cc(C)nc(-c3ccccc3)n2)cc1` (stereo not drawn), the growth inhibition is inactive: -2.16%. To `CCSC(C)CC1C/C(=N/O)c2c(CC)noc2C1` (stereo not drawn) belongs inactive: -3.72%. As for `Clc1cccc(NCc2nnc(SCc3ccccc3)o2)c1`, the figure is inactive: 5.61%. For the molecule `Cc1ccc(C(=O)N2CCN(c3cccc(Cl)c3)CC2)cc1C`, the growth inhibition is inactive: 7.44%.

Regarding `CCn1c(=N)n(CC(=O)C23CC4CC(CC(C4)C2)C3)c2ccccc21`, the growth inhibition was inactive: 0.66%.

Regarding `CCCc1nc2oc3cc(OC)ccc3c(=O)c2c(=O)n1Cc1ccco1`, the growth inhibition is inactive: -1.23%. As to `O=C(Nc1nc2n(n1)C(c1ccc(Cl)cc1)CC(c1ccc(Cl)cc1)N2)c1ccco1` (stereo not drawn), the growth inhibition is active: 13%.

As to `N#Cc1cn(Cc2ccccc2)c2ccccc12`, the growth inhibition was inactive: 6%.

On to `COC(=O)CSc1nc(N2CCCCC2)c2c(c1C#N)CCCC2`, for which the growth inhibition was inactive: -13.1%.

In the case of `Cn1nc(-c2ccc(N3CCOCC3)c(NC(=O)COc3ccccc3)c2)c2ccccc2c1=O`, the growth inhibition was inactive: -11.5%.

Take `CSc1nc2ccc(NS(=O)(=O)c3ccc(Cl)s3)cc2s1`: the growth inhibition was inactive: 16.1%. As for `CCOC(=O)C1CCN(c2ncnc3c2oc2ccc(Br)cc23)CC1`, the figure is inactive: -3.27%. As for `CC1=CC(C)(C)N(C(=O)c2ccc(F)cc2)c2cc3c(cc21)OCO3`, the figure is inactive: -8.31%; as for `N#Cc1c(N)oc(-c2ccc3c(c2)OCO3)c1-c1ccc2c(c1)OCO2`, inactive: 10.1%; as for `COc1ccc(-n2c(COc3ccccc3)nnc2SCc2ccc(C#N)cc2)cc1`, inactive: 7.49%. For the molecule `Cc1ccc(C)c(Cn2c(CN(C)Cc3ccccc3)nc3c2c(=O)n(C)c(=O)n3C)c1`, the growth inhibition was inactive: -10%. In the case of `CC(C)Cc1cc(C(=O)Nc2cc(Br)ccc2O)no1`, the growth inhibition is inactive: -6.03%. As for `N=c1c2c(-c3ccccc3)c(-c3ccccc3)n(Cc3ccco3)c2ncn1Cc1ccco1`, the figure is inactive: 8.39%; as for `CCCCn1nc(NC(=O)c2cccs2)c2cc3ccccc3nc21`, inactive: 2.32%. In the case of `COC(=O)C1=C(C)N(C)C(C)=C(C(=O)OC)C1c1ccc(F)c(Br)c1`, the growth inhibition was inactive: 5.26%. Take `Fc1ccc(Cn2nnnc2C(c2cccs2)N2CCCCCC2)cc1` (stereo not drawn): the growth inhibition was inactive: -1.95%. Consider `Cc1ccc(-c2csc(N(CC3CCCO3)C(=O)c3ccco3)n2)cc1` (stereo not drawn), for which the growth inhibition is inactive: -3.37%. As for `CC1(C)COCN1S(=O)(=O)c1ccc(C(=O)Nc2nnc(-c3ccc(Cl)s3)o2)cc1`, the figure is inactive: -1.23%; as for `O=C(O)c1cc(Cl)c2ccccc2c1O`, inactive: 5.04%. As for `COc1ccc(N(C2CSC2)S(=O)(=O)c2ccccc2)cc1`, the figure is inactive: -6.81%; as for `Cc1sc(NC(=O)c2ccco2)c(CN2CCN(c3ccccn3)CC2)c1C`, inactive: -12.8%; as for `O=C(COn1nnc2ccc(C(F)(F)F)cc21)Nc1nnc(-c2ccccc2)o1`, inactive: -3.92%. As for `CCCCCCn1c(N2CCN(c3ccccc3)CC2)nc2c1c(=O)n(C)c(=O)n2C`, the figure is inactive: -13.4%; as for `CCOC(=O)N1CCC(Nc2nc3ccccc3nc2NS(=O)(=O)c2ccc(Cl)cc2)CC1`, inactive: 5.37%; as for `Cc1ccc(S(=O)(=O)N(Cc2ccc(F)cc2)Cc2ccco2)cc1`, inactive: 7.59%. With `CCSc1nnc(NC(=O)c2cccc(OCc3c(C)noc3C)c2)s1`, the growth inhibition was inactive: 6.64%. As for `Cc1cccc(N2CCN(C(=O)c3cn(C)c(=O)c4c3c3ccccc3n4C)CC2)c1C`, the figure is inactive: -2.17%; as for `CCN(CC)c1ccc(-c2nn3c(-c4n[nH]c5c4CCC5)nnc3s2)cc1`, inactive: 5.16%. With `OCCN1CCN(c2nc(-c3ccccc3)c3cc(Cl)ccc3n2)CC1`, the growth inhibition is inactive: 2.45%. As for `Cc1ccccc1Cn1nc(C)c(NC(=O)c2noc3c2CC(C(C)(C)C)CC3)c1C` (stereo not drawn), the figure is inactive: -6.59%; as for `N#Cc1c(/N=C/c2ccco2)oc(-c2ccccc2)c1-c1ccccc1`, inactive: 2.06%. To `O=C1CCCC2=C1C(c1cccs1)n1nc(SCc3ccccc3)nc1N2` (stereo not drawn) belongs inactive: 0.4%; to `CCc1cc2c(N3CCN(c4ccccc4)CC3)ncnc2s1`, inactive: 8.6%; to `c1ccc(-c2csc(N3CCN(c4ccccn4)CC3)n2)cc1`, inactive: -6.86%. As for `Cc1ccc2cc(CN(Cc3ccc(F)cc3)Cc3nnnn3C3CCCC3)c(=O)[nH]c2c1`, the figure is inactive: -4.23%; as for `Clc1ccc(Cn2ncc3c(NCc4ccco4)ncnc32)c(Cl)c1`, inactive: 13.6%; as for `Cc1ccc(S(=O)(=O)Cn2nnnc2CN2CCCC3(CCCCC3)C2)cc1`, inactive: -8.84%. Regarding `COC(=O)c1cccc(-n2nnnc2SCC(=O)Nc2nc3c(s2)CCCC3)c1`, the growth inhibition is inactive: -0.91%. For the molecule `COC(=O)c1sc(N2C(=O)C(O)=C(C(=O)c3ccc(C)o3)C2c2ccc(F)cc2)nc1C` (stereo not drawn), the growth inhibition was inactive: -4.88%.

On to `COc1ccc(Nc2nc(N3CCCC3)c3ccccc3n2)cc1`, for which the growth inhibition was inactive: 11.6%.

Turning to `CCOC(=O)c1c(NC(=O)CSc2nnc(C)c(=O)[nH]2)sc2c1CCC2`, the growth inhibition is inactive: -1.04%. As for `Cc1[nH]n2c(=O)c3c(nc2c1-c1ccc(Cl)cc1)CCC3`, the figure is inactive: -6.61%. As for `Cc1cccc2cc(CN(Cc3ccco3)C(=O)NC3CCCCC3)c(=O)[nH]c12`, the figure is inactive: -1.82%; as for `CCCCCn1c(N2CCC(Cc3ccccc3)CC2)nc2c1c(=O)[nH]c(=O)n2C`, inactive: -11.3%; as for `Fc1cccc2sc(Nc3nnc(-c4ccco4)o3)nc12`, inactive: -14%. Turning to `CC1CCC2C(C1)c1sc(=O)[nH]c1SC2(C)C` (stereo not drawn), the growth inhibition was inactive: 15.2%. As for `CN(C)c1ccc(C2C=C(c3ccc(Cl)cc3OC(F)F)Nc3ncnn32)cc1` (stereo not drawn), the growth inhibition is inactive: -1.91%. As to `Cc1ccccc1OCCCCc1c(C)n[nH]c1C`, the growth inhibition is inactive: 5.3%. As for `O=C(c1ccc(COc2ccc3c(c2)CCC3)o1)N1CCN(c2ccccc2)CC1`, the figure is inactive: 2.85%. With `CCCCOc1ccc(S(=O)(=O)Nc2cc(OC)ccc2OC)cc1`, the growth inhibition was inactive: -1.85%. As for `CC(C)OCCCNc1ncnc2c1[nH]c1ccc(F)cc12`, the growth inhibition is inactive: 9.62%. To `CS(=O)c1nc(-c2ccc(Br)cc2)cc(-c2ccccc2)c1C#N` (stereo not drawn) belongs inactive: -3.92%; to `O=C(Nc1nc2ccccc2s1)C1CCCN1S(=O)(=O)c1ccc(Cl)cc1` (stereo not drawn), inactive: -7.08%.

Take `CCOc1ccccc1N1CCN(C(=O)Nc2ccc(F)c(Cl)c2)CC1`: the growth inhibition is inactive: -9.1%.

With `CCOC(=O)c1[nH]c2ccc(F)cc2c1NC(=O)CN1CCN(C/C=C/c2ccccc2)CC1`, the growth inhibition is inactive: -5.2%. To `CN(c1ccccc1)c1nc(N2CCCC2)nc(-n2ccnc2)n1` belongs inactive: 5.65%; to `CC(C)Sc1nc(NCc2ccco2)c2c3c(sc2n1)COC(C)(C)C3`, inactive: -9.23%; to `COc1ccccc1N1CCN(C(=O)c2oc3cc(C)c(C)cc3c2C)CC1`, inactive: -0.05%.

Consider `O=C(CN(Cc1ccc2c(c1)OCO2)C(=O)CSc1nc2ccccc2o1)NC1CCCCC1`, for which the growth inhibition was inactive: -6.97%. As for `Cc1ccc(NC(=O)N2CCC(c3nc4c(nnn4Cc4cccc(Cl)c4)c(=O)[nH]3)CC2)cc1`, the growth inhibition is inactive: -0.39%. Turning to `CCOC(=O)C1CCCN(c2ncnc3c2cnn3-c2ccc(Cl)cc2)C1` (stereo not drawn), the growth inhibition is inactive: -11.7%. For the molecule `O=c1c2ccccc2n(Cc2ccc(F)cc2)c(=O)n1C1CCCC1`, the growth inhibition is inactive: -11%. As for `c1coc(CNc2nc(N3CCCCC3)nc3ccccc23)c1`, the figure is inactive: 19.5%; as for `Cc1ccc2c(c1)[nH]c1c(N3CCN(Cc4ccccc4)CC3)ncnc12`, inactive: 4.5%.

In the case of `CCn1c2ccccc2c2cc(C3C(C#N)=C(N)Oc4n[nH]c(COC)c43)ccc21` (stereo not drawn), the growth inhibition is inactive: 10.3%.

Turning to `COc1ccc(-c2csc(NCc3ccco3)n2)cc1C`, the growth inhibition is inactive: -5.93%. To `COc1ccc(C(=O)Nc2nc(-c3cccs3)cs2)cc1` belongs inactive: 5.17%; to `CC1CCCN(c2ccc(C(=O)NCCc3ccccc3)cn2)C1` (stereo not drawn), inactive: -9.36%. To `Clc1ccc(OCCCc2nc(-c3cccnc3)no2)c(Cl)c1` belongs inactive: 14.3%; to `Brc1ccc(CSc2nnc(-c3ccccn3)n2Cc2ccco2)cc1`, inactive: 3.24%; to `CN(c1ccccc1)C(c1ccc(F)cc1)c1nnnn1C1CCCC1` (stereo not drawn), inactive: -5.82%. Regarding `CC(C)C[C@H](NC(=O)OC(C)(C)C)c1nnc(SCc2cccc(F)c2)o1`, the growth inhibition was inactive: -2.46%. `CCOc1ccc(C(=O)N2CCN(c3cccc(C)c3C)CC2)cc1`: the growth inhibition was inactive: 3.01%. As for `N#CC1=C(SCC(=O)c2cc3ccccc3oc2=O)NC(=O)C(C#N)C12CCCC2` (stereo not drawn), the figure is inactive: 14.3%; as for `CCc1ccccc1N(C)C(=O)CCc1nc(-c2ccc(C)cc2)no1`, inactive: -4.92%; as for `CCCCOC(=O)CSc1nnc(-c2ccc(Cl)cc2Cl)o1`, inactive: 1.1%. Take `CCOC(=O)c1cc2sc(C)cc2n1C(C)C(=O)OCC` (stereo not drawn): the growth inhibition is inactive: 4.08%.

Regarding `C=C(C)COc1ccc(-c2[nH]ncc2Oc2cccc(OC)c2)c(O)c1`, the growth inhibition was inactive: 14.1%. As for `CCCn1c2ccccc2c2nc3ccccc3nc21`, the figure is inactive: -4.27%; as for `CCOC(=O)c1c(-c2ccccc2)nnn1-c1nc(OCC)nc(N2CCCCC2)n1`, inactive: -1.79%; as for `CC(C)c1ccc(-c2noc(C3CCCN(C(=O)c4ccc(F)cc4F)C3)n2)cc1` (stereo not drawn), inactive: 6.32%.

Take `CCC1(C)Cc2ccccc2-c2nc3n(c(=O)c21)CCCCC3` (stereo not drawn): the growth inhibition was inactive: -1.35%. As to `CN(Cc1ccccc1)c1ncnc2c1cnn2-c1ccccc1`, the growth inhibition was inactive: -7.57%. Take `CC(O)c1c(OCc2ccccc2)ncnc1OCc1ccccc1` (stereo not drawn): the growth inhibition is inactive: 13.2%. To `Cn1cccc1C(=O)Nc1nc(-c2ccccn2)cs1` belongs inactive: 15%; to `O=C(CSc1nnnn1C1CCCCC1)Nc1cccc(NC(=O)c2ccco2)c1`, inactive: 3.75%; to `O=S(=O)(c1ccccc1)c1nc(-c2ccco2)oc1N1CCCCCC1`, inactive: 4.36%.
